# Laboratory results from PMC8410936.
# T1: PapD chaperone with His-tag (uropathogenic Escherichia coli) (UniProt P15319)
# T1 sequence: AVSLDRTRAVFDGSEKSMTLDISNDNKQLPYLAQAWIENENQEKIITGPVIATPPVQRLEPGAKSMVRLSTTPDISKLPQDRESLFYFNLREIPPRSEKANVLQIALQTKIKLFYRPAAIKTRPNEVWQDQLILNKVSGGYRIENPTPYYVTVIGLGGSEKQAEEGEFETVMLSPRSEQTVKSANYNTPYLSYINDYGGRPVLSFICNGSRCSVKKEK
# T2: PapC usher (uropathogenic Escherichia coli) (UniProt P07110)
# T2 sequence: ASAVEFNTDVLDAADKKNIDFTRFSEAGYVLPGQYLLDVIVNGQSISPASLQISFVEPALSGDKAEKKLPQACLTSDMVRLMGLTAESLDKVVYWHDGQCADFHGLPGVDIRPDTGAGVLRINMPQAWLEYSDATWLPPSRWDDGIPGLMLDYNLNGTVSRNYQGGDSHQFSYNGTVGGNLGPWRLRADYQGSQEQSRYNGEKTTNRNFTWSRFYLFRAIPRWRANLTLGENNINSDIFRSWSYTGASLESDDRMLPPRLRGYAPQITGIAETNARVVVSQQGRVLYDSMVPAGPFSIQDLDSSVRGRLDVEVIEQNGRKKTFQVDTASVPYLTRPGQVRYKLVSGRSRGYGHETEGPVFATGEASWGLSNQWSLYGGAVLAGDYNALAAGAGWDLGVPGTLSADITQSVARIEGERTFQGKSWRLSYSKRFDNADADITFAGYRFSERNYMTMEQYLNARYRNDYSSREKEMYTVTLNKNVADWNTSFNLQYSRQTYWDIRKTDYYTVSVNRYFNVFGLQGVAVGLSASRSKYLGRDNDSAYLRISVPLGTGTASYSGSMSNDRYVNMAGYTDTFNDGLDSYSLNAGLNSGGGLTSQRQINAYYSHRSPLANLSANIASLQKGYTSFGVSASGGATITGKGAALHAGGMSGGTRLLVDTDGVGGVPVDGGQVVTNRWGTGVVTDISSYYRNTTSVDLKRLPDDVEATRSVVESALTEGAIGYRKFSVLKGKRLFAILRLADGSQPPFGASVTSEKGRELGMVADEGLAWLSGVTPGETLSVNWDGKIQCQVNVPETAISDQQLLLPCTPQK
# Experiments:
# [1] = target: T1, PapD chaperone with His-tag (uropathogenic Escherichia coli); experiment: isolation of assembly intermediates from bacteria; complexes formed in bacteria and isolated; no data shown, details not told
# [2] = target: T2, PapC usher (uropathogenic Escherichia coli); experiment: cryo-EM structure; ∆EF complex PapCDHisK_(F-NTE)G made in vivo, purified from the outer membrane by the His-tag on PapD, 25 mM Tris-HCl pH 8.0, 120 mM NaCl, 0.1% DDM; Conformer II at 3.8 Å and Conformer III at 7.2 Å from one dataset
# [3] = target: T2, PapC usher (uropathogenic Escherichia coli); experiment: cryo-EM structure; ∆E complex PapCDHisK_(E-NTE)FG made in vivo, purified from the outer membrane by the His-tag on PapD, 25 mM Tris-HCl pH 8.0, 120 mM NaCl, 0.1% DDM; Conformer I, 7.6 Å
# [4] = target: PapG adhesin (uropathogenic Escherichia coli); experiment: as above
Molecule,binding [1],binding [2],binding [3],binding [4]
PapG adhesin (uropathogenic Escherichia coli),binds,binds,binds,
"PapF (protein, UniProt P08408 19-167) ADVQINIRGNVYIPPCTINNGQNIVVDFGNINPEHVDNSRGEVTKTISISCPYKSGSLWIKVTGNTMGGGQNNVLATNITHFGIALYQGKGMSTPLILGNGSGNGYGVTAGLDTARSTFTFTSVPFRNGSGILNGGDFQTTASMSMIYN",,,,binds

# No constants are given. Whether binding was seen depends on the method and setting. Binding can be weak; no strength is given. For some of these results: Sequences can lack the tags named with a protein.
